In PubChem BioAssay AID288 (DTP/NCI, 2004):
The list is a part of this screen's results and no random one: it gathers tests that were run many times, whatever their T/C, doses with no T/C, and many T/C values between a quarter and a half above the control. Further doses and runs are listed elsewhere. T/C: endpoint of the treated group in % of that of the vehicle group. Schedules are NCI's codes, taken here to give the interval after Q, in days (D) or hours (H), and the number of doses after X. Some doses have a count of surviving animals in place of a T/C: the source holds a T/C of zero for them, seemingly a mark for toxic or unscored doses. Some survivor counts are full or nearly so, which does not show that the dose was tolerated: the source hardly ever lists a survival T/C far under the control, and the zero likely stands for such cases as well. Counts of survivors are from the toxicity check (mostly the fifth day) where no day follows; animals may have died later. Where survival is the endpoint, this PubChem deposit counts one and a half times the control or more as active, and values a quarter to a half above the control carry no call in these data; other NCI protocols may use other cut-offs. Some entries hold several experiments; the results are listed from low to high. Some T/C values are followed by the survivors on the day toxicity was checked, most often the fifth; where none is given, no animal had died by that day.

Test system: BDF1 mice, M5076 sarcoma s.c., survival/tumor T/C
Experiment: NCI In Vivo Anticancer Drug Screen. Data for tumor model Sarcoma M5076 (subcutaneous) in B6D2F1 (BDF1) mice
Procedure: The antitumor activity of compounds was measured in mice bearing transplantable tumors. Survival or tumor size were measured and the results are expressed as the measurement made in the treated group (T) divided by the measurement made in the vehicle treated control group (C). The tumor model used in this assay is Sarcoma M5076 (subcutaneous) in B6D2F1 (BDF1) mice

[1] = T/C endpoint: median survival time, dose: 100.0 mg/kg/injection, schedule: Q01DX009 (ip), vehicle: saline with Tween-80, higher T/C = longer survival

## CCC/C=C/C=C/C(=O)OC1/C(=C/C(=O)OC)CC2CC(C(C)O)OC(=O)CC(O)CC3CC(OC(C)=O)C(C)(C)C(O)(CC4C/C(=C/C(=O)OC)CC(/C=C/C(C)(C)C1(O)O2)O4)O3 (stereo unspecified)
T/C endpoint: median survival time, dose: 40.0 micrograms/kg/injection, schedule: Q01DX009 (ip), vehicle: saline + Tween-80 + alcohol, higher T/C = longer survival
  T/C: 130 % of control
T/C endpoint: median survival time, dose: 40.0 micrograms/kg/injection, schedule: Q01DX009 (ip), vehicle: saline + alcohol, higher T/C = longer survival
  T/C: 125 % of control
T/C endpoint: median tumor weight (est.), dose: 80.0 micrograms/kg/injection, schedule: Q01DX009 (ip), vehicle: saline + Tween-80 + alcohol, higher T/C = larger tumour
  survivor count: 6 of 10 on day 20
T/C endpoint: median tumor weight (est.), dose: 80.0 micrograms/kg/injection, schedule: Q01DX009 (ip), vehicle: saline + alcohol, higher T/C = larger tumour
  survivor count: 6 of 10 on day 20

## Nc1ccn(C2OC3COC2C3O)c(=O)n1 (stereo unspecified)
T/C endpoint: median tumor weight (est.), dose: 50.0 mg/kg/injection, schedule: Q01DX009 (ip), vehicle: saline, evaluated on day 20, higher T/C = larger tumour
  T/C: 146 % of control

## CO[C@H](C(=O)[C@@H](O)[C@@H](C)O)[C@@H]1Cc2cc3cc(OC4CC(OC5CC(O)C(O)C(C)O5)C(O)C(C)O4)c(C)c(O)c3c(O)c2C(=O)[C@H]1OC1CC(OC2CC(OC3CC(C)(O)C(O)C(C)O3)C(O)C(C)O2)C(O)C(C)O1 (stereo partly specified)
T/C endpoint: mean tumor weight, dose: 2.5 micrograms/kg/injection, schedule: Q02DX011 (ip), vehicle: water, evaluated on day 22, higher T/C = larger tumour
  T/C: 143 % of control
T/C endpoint: median tumor weight (est.), dose: 0.03 mg/kg/injection, schedule: Q02DX011 (ip), vehicle: water, evaluated on day 22, higher T/C = larger tumour
  T/C: 128 % of control

## COc1cccc2c1C(=O)c1c(O)c3c(c(O)c1C2=O)C[C@@](O)(C(=O)CO)C[C@@H]3OC1CC(N)C(O)C(C)O1 (stereo partly specified)
T/C endpoint: mean tumor weight, dose: 4.0 mg/kg/injection, schedule: Q02DX011 (ip), vehicle: saline, higher T/C = larger tumour
  survivor count: 3 of 10 on day 22
T/C endpoint: median survival time, dose: 1.3 mg/kg/injection, schedule: Q04DX004 (ip), vehicle: saline, higher T/C = longer survival
  survivor count: 8 of 8
T/C endpoint: median survival time, dose: 6.0 mg/kg/injection, schedule: Q04DX004 (ip), vehicle: saline, higher T/C = longer survival
  survivor count: 8 of 8
T/C endpoint: median survival time, dose: 6.0 mg/kg/injection, schedule: Q04DX004 (iv), vehicle: saline, higher T/C = longer survival
  T/C: 138 % of control
T/C endpoint: median survival time, dose: 6.7 mg/kg/injection, schedule: Q04DX003 (iv), vehicle: saline, higher T/C = longer survival
  survivor count: 4 of 10 on day 45
T/C endpoint: median survival time, dose: 10.0 mg/kg/injection, schedule: Q04DX003 (iv), vehicle: saline, higher T/C = longer survival
  survivor count: 2 of 10 on day 45
T/C endpoint: median survival time, dose: 10.0 mg/kg/injection, schedule: Q04DX004 (ip), vehicle: saline, higher T/C = longer survival
  survivor count: 7 of 8
T/C endpoint: median survival time, dose: 10.0 mg/kg/injection, schedule: Q04DX004 (iv), vehicle: saline, higher T/C = longer survival
  survivor count: 8 of 8
T/C endpoint: median tumor weight (est.), dose: 4.0 mg/kg/injection, schedule: Q02DX011 (ip), vehicle: saline, higher T/C = larger tumour
  survivor count: 3 of 10 on day 22

## O=C1CC(Cl)(CS(F)(F)(F)(F)F)O1 (stereo unspecified)
[1]
  survivor count: 0 of 10 on day 9
T/C endpoint: median survival time, dose: 200.0 mg/kg/injection, schedule: Q01DX009 (ip), vehicle: saline with Tween-80, higher T/C = longer survival
  survivor count: 0 of 10 on day 9
T/C endpoint: median tumor weight (est.), dose: 100.0 mg/kg/injection, schedule: Q01DX009 (ip), vehicle: saline with Tween-80, higher T/C = larger tumour
  survivor count: 0 of 10 on day 20
T/C endpoint: median tumor weight (est.), dose: 200.0 mg/kg/injection, schedule: Q01DX009 (ip), vehicle: saline with Tween-80, higher T/C = larger tumour
  survivor count: 0 of 10 on day 20

## S=c1nc[nH]c2nc[nH]c12
T/C endpoint: median survival time, dose: 25.0 mg/kg/injection, schedule: Q02DX033 (ip), vehicle: saline with Tween-80, higher T/C = longer survival
  survivor count: 3 of 10 on day 16

## CNC(=O)c1ccccc1C1(O)c2ccccc2CCc2ccccc21
[1]
  survivor count: 10 of 10 on day 9

## CO[C@@]12[C@H](COC(N)=O)C3=C(C(=O)C(C)=C(N)C3=O)N1C[C@@H]1N[C@@H]12
T/C endpoint: median survival time, dose: 1.5 mg/kg/injection, schedule: Q04DX006 (ip), vehicle: saline, higher T/C = longer survival
  T/C: 130 % of control

## CC1(C)COCN1COCCOCN1COCC1(C)C
T/C endpoint: median survival time, dose: 200.0 mg/kg/injection, schedule: Q04DX003 (ip), vehicle: saline, higher T/C = longer survival
  survivor count: 6 of 10 on day 72
T/C endpoint: median survival time, dose: 400.0 mg/kg/injection, schedule: Q04DX003 (ip), vehicle: saline, higher T/C = longer survival
  survivor count: 0 of 10 on day 72

## Nc1nncs1
T/C endpoint: mean tumor weight, dose: 150.0 mg/kg/injection, schedule: Q02DX011 (ip), vehicle: acid diluted with saline, higher T/C = larger tumour
  survivor count: 0 of 10 on day 22
T/C endpoint: median survival time, dose: 100.0 mg/kg/injection, schedule: Q01DX009 (ip), vehicle: saline, higher T/C = longer survival
  survivor count: 9 of 9
T/C endpoint: median tumor weight (est.), dose: 50.0 mg/kg/injection, schedule: Q01DX009 (ip), vehicle: saline, higher T/C = larger tumour
  survivor count: 6 of 10 on day 17
T/C endpoint: median tumor weight (est.), dose: 100.0 mg/kg/injection, schedule: Q01DX009 (ip), vehicle: saline, higher T/C = larger tumour
  survivor count: 2 of 9 on day 17
T/C endpoint: median tumor weight (est.), dose: 150.0 mg/kg/injection, schedule: Q02DX011 (ip), vehicle: acid diluted with saline, higher T/C = larger tumour
  survivor count: 0 of 10 on day 22

## CC1(C)N=C(N)N=C(N)N1c1ccc(CCCCc2ccc(S(=O)(=O)F)cc2Cl)c(Cl)c1
T/C endpoint: median survival time, dose: 3.7 mg/kg/injection, schedule: Q01DX005 (ip), vehicle: other, higher T/C = longer survival
  T/C: 134 % of control
T/C endpoint: median survival time, dose: 3.7 mg/kg/injection, schedule: Q01DX009 (ip), vehicle: other, higher T/C = longer survival
  T/C: 143 % of control
T/C endpoint: median survival time, dose: 3.8 mg/kg/injection, schedule: Q01DX009 (ip), vehicle: other, higher T/C = longer survival
  T/C: 125 % of control [8 of 9 alive on day 89]
T/C endpoint: median survival time, dose: 5.0 mg/kg/injection, schedule: Q01DX009 (ip), vehicle: other, higher T/C = longer survival
  T/C: 125 % of control [8 of 9 alive on day 89]
T/C endpoint: median survival time, dose: 5.0 mg/kg/injection, schedule: Q01DX009 (ip), vehicle: saline with Tween-80, higher T/C = longer survival
  T/C: 133 % of control
T/C endpoint: median survival time, dose: 7.5 mg/kg/injection, schedule: Q01DX001 (ip), vehicle: other, higher T/C = longer survival
  T/C: 129 % of control
T/C endpoint: median survival time, dose: 7.5 mg/kg/injection, schedule: Q01DX005 (ip), vehicle: other, higher T/C = longer survival
  T/C: 140 % of control [9 of 10 alive on day 89]
T/C endpoint: median survival time, dose: 7.5 mg/kg/injection, schedule: Q01DX009 (ip), vehicle: other, higher T/C = longer survival
  T/C: 138 and 141 % of control
T/C endpoint: median survival time, dose: 10.0 mg/kg/injection, schedule: Q01DX009 (ip), vehicle: other, higher T/C = longer survival
  T/C: 141 % of control [9 of 10 alive on day 89]
T/C endpoint: median survival time, dose: 12.0 mg/kg/injection, schedule: Q01DX009 (ip), vehicle: other, higher T/C = longer survival
  T/C: 141 % of control
T/C endpoint: median survival time, dose: 15.0 mg/kg/injection, schedule: Q01DX001 (iv), vehicle: other, higher T/C = longer survival
  survivor count: 2 of 10 on day 89
T/C endpoint: median survival time, dose: 15.0 mg/kg/injection, schedule: Q01DX005 (iv), vehicle: other, higher T/C = longer survival
  survivor count: 0 of 12 on day 89
T/C endpoint: median survival time, dose: 18.0 mg/kg/injection, schedule: Q01DX009 (ip), vehicle: other, higher T/C = longer survival
  T/C: 137 % of control [8 of 10 alive on day 109]
T/C endpoint: median survival time, dose: 24.0 mg/kg/injection, schedule: Q01DX009 (ip), vehicle: other, higher T/C = longer survival
  survivor count: 0 of 5
T/C endpoint: median survival time, dose: 27.0 mg/kg/injection, schedule: Q01DX009 (ip), vehicle: other, higher T/C = longer survival
  survivor count: 2 of 10 on day 109
T/C endpoint: median survival time, dose: 30.0 mg/kg/injection, schedule: Q01DX001 (iv), vehicle: other, higher T/C = longer survival
  survivor count: 0 of 10 on day 89
T/C endpoint: median survival time, dose: 30.0 mg/kg/injection, schedule: Q01DX005 (ip), vehicle: other, higher T/C = longer survival
  survivor count: 0 of 10 on day 89
T/C endpoint: median survival time, dose: 30.0 mg/kg/injection, schedule: Q01DX005 (iv), vehicle: other, higher T/C = longer survival
  survivor count: 0 of 14 on day 89
T/C endpoint: median survival time, dose: 30.0 mg/kg/injection, schedule: Q01DX009 (ip), vehicle: other, higher T/C = longer survival
  survivor count: 0 of 10 on day 89
T/C endpoint: median survival time, dose: 40.0 mg/kg/injection, schedule: Q01DX009 (ip), vehicle: other, higher T/C = longer survival
  survivor count: 1 of 10 on day 89
T/C endpoint: median survival time, dose: 50.0 mg/kg/injection, schedule: Q01DX009 (ip), vehicle: other, higher T/C = longer survival
  survivor count: 0 of 10 on day 89
T/C endpoint: median survival time, dose: 60.0 mg/kg/injection, schedule: Q01DX001 (iv), vehicle: other, higher T/C = longer survival
  survivor count: 0 of 10 on day 89
T/C endpoint: median survival time, dose: 60.0 mg/kg/injection, schedule: Q01DX005 (ip), vehicle: other, higher T/C = longer survival
  survivor count: 0 of 10 on day 89
T/C endpoint: median survival time, dose: 60.0 mg/kg/injection, schedule: Q01DX009 (ip), vehicle: other, higher T/C = longer survival
  survivor count: 0 of 10 on day 89
[1]
  survivor count: 0 of 9
T/C endpoint: median survival time, dose: 120.0 mg/kg/injection, schedule: Q01DX001 (ip), vehicle: other, higher T/C = longer survival
  T/C: 130 % of control [8 of 10 alive on day 89]
T/C endpoint: median survival time, dose: 120.0 mg/kg/injection, schedule: Q01DX005 (ip), vehicle: other, higher T/C = longer survival
  survivor count: 3 of 10 on day 89
T/C endpoint: median survival time, dose: 133.0 mg/kg/injection, schedule: Q01DX009 (ip), vehicle: saline with Tween-80, higher T/C = longer survival
  survivor count: 4 of 10 on day 109

## CS(=O)(=O)OCCCCOS(C)(=O)=O
T/C endpoint: mean tumor weight, dose: 30.0 mg/kg/injection, schedule: Q02DX011 (ip), vehicle: Klucel (hydroxypropylcellulose) (HPC), higher T/C = larger tumour
  survivor count: 5 of 10 on day 22
T/C endpoint: mean tumor weight, dose: 60.0 mg/kg/injection, schedule: Q02DX011 (ip), vehicle: Klucel (hydroxypropylcellulose) (HPC), higher T/C = larger tumour
  survivor count: 0 of 10 on day 22

## Nc1nnc[se]1
T/C endpoint: median survival time, dose: 400.0 mg/kg/injection, schedule: Q04DX003 (ip), vehicle: saline with Tween-80, higher T/C = longer survival
  T/C: 130 % of control [7 of 10 alive on day 57]
